These are yes or no findings as the source states them, for the method shown. Binding seen in cells or lysates may run through a third protein. Some binding calls cover weakened binding; strength is not graded here. Where a sequence is shown, tags or fusion partners need not be part of it.
Target: T1, full-length GST-PTOV1 (human) (UniProt Q86YD1)
T1 sequence: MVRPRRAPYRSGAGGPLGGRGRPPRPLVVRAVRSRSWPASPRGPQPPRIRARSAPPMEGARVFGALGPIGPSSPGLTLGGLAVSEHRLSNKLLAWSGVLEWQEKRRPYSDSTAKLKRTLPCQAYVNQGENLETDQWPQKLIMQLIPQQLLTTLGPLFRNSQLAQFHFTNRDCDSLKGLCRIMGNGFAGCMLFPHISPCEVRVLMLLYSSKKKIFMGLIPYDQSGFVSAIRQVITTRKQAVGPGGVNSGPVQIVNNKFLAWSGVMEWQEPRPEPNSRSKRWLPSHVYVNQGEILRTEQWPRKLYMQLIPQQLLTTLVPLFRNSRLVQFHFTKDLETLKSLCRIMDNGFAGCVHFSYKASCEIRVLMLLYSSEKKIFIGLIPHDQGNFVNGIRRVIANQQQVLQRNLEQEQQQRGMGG
Assay: pull-down; purified GST-fusion proteins (GST-PTOV1, GST-A domain, GST-B domain) on beads, with extracts of transfected PC-3 cells; bound proteins analysed by SDS-PAGE and Western blotting; only the target purified

By UniProt entry, the sequences of proteins in these tests, tags left out.
UniProt Q13547: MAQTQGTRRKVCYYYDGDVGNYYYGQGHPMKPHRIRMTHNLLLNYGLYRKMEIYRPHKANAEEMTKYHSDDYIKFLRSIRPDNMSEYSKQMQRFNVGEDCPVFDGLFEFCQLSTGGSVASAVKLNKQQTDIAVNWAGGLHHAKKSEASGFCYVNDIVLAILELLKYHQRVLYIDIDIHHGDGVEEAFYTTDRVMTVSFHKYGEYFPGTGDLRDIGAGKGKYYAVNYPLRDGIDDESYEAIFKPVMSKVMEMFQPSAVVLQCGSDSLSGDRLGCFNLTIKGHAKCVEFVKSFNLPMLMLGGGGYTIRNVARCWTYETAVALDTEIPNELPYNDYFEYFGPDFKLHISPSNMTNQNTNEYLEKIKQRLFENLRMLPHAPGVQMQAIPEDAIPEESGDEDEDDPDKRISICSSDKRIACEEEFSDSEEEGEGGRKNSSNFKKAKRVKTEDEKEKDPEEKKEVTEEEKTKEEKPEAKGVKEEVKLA
UniProt O75376: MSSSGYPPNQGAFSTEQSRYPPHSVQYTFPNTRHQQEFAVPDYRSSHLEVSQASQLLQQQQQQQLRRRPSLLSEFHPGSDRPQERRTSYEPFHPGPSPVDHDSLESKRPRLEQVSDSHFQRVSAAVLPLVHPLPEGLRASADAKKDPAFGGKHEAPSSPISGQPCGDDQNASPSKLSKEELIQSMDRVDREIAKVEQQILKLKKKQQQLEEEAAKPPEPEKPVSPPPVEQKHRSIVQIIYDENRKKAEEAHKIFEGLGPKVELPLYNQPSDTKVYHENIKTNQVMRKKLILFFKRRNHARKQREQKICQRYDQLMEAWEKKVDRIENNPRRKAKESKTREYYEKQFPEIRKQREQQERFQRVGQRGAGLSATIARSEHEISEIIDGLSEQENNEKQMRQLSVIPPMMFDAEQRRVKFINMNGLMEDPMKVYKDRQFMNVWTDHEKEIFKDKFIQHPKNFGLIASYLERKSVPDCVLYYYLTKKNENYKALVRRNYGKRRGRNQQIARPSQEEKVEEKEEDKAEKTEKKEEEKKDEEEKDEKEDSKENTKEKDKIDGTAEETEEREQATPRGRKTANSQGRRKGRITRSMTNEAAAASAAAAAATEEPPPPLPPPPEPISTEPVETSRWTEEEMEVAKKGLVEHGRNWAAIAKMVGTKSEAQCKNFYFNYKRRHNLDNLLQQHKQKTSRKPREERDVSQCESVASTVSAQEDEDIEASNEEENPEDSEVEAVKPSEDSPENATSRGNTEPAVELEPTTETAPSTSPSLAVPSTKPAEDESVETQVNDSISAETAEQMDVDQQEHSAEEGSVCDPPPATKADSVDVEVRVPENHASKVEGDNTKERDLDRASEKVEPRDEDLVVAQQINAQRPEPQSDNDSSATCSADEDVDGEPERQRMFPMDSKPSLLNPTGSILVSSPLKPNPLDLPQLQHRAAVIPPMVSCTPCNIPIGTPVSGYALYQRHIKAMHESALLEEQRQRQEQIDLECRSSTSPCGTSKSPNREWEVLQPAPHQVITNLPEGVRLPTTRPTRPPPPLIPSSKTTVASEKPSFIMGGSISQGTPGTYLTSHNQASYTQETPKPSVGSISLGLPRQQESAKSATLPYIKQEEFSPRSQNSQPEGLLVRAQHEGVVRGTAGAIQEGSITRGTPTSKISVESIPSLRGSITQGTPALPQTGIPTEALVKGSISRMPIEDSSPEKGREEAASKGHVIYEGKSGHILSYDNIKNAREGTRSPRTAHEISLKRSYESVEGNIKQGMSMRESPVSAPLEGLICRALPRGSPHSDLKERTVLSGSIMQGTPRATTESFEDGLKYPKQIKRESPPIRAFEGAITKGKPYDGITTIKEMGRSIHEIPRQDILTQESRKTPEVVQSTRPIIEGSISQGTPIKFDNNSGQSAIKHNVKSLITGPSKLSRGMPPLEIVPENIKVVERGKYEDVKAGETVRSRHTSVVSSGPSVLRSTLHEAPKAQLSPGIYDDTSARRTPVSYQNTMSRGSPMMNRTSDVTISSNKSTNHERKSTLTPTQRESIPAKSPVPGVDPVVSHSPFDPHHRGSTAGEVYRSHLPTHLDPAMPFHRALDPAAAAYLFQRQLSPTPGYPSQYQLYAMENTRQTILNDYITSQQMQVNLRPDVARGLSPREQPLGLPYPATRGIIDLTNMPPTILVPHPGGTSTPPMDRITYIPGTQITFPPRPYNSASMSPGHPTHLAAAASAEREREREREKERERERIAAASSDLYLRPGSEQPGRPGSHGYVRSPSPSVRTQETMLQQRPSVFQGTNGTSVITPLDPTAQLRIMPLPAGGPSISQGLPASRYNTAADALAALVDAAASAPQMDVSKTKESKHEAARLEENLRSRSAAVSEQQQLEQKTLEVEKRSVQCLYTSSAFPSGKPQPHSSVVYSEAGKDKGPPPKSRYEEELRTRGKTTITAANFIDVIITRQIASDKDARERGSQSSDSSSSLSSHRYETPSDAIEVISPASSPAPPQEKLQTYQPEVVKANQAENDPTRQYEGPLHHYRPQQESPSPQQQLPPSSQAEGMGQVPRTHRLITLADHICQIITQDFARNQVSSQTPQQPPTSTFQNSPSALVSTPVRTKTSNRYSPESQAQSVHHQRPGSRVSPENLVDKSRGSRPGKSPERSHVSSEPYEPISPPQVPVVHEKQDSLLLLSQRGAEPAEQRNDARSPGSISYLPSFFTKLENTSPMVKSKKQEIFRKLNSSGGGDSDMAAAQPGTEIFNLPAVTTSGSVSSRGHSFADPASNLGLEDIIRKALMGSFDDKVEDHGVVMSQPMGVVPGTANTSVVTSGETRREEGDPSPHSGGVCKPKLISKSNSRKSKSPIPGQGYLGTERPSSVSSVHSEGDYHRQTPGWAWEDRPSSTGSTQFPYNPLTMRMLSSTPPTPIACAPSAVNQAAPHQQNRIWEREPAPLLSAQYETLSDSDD
UniProt Q06330: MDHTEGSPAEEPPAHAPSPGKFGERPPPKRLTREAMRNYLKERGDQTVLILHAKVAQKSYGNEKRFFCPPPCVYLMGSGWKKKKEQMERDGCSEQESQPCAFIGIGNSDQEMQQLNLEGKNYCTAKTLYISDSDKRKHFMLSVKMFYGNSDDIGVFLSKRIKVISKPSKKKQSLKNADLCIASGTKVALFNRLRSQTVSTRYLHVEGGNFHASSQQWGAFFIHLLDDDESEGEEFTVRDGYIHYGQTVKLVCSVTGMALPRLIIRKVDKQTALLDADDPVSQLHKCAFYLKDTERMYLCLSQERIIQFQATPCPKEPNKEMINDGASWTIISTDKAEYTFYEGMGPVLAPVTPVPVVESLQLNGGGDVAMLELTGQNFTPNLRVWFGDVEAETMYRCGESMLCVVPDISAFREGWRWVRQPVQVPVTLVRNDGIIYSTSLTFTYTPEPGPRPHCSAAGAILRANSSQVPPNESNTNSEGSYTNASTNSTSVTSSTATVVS

binding | Substance
binds | FLAG-HDAC1 (from UniProt Q13547 1-482) (enzyme)
binds | FLAG-NCoR (from UniProt O75376 1-2440)
binds | FLAG-RBP-Jκ (from UniProt Q06330 1-500)
